The record followed here is PMC6046124.

By UniProt entry, the sequences of proteins in these tests, tags left out.
UniProt Q9Z2L0: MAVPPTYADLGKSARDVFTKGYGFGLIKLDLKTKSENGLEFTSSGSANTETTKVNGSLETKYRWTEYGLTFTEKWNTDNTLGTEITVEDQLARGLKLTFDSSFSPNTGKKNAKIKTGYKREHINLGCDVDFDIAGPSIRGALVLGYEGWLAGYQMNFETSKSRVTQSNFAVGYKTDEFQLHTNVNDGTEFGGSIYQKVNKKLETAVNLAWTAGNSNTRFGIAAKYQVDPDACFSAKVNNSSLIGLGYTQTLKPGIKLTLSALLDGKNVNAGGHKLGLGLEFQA
UniProt P49950: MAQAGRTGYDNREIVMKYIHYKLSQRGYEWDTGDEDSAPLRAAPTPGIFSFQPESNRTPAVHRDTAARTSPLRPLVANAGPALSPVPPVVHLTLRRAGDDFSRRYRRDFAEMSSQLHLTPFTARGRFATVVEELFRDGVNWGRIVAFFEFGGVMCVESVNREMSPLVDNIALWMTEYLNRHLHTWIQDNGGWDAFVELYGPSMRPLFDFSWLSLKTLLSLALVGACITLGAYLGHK

These are yes or no findings as the source states them, for the method shown. In cells and extracts the contact can be indirect. Some results given as binding are weak or reduced against the parent protein; the word gives no strength.

Test [1] addresses voltage-dependent anion channel 1 (rat (endogenous in H9c2)) (UniProt Q9Z2L0). Nature of the test: co-IP; RIPA lysate of H9c2 cells pretreated with TSN for 2 days before A/R injury; immunoprecipitated with anti-14-3-3η, anti-Bcl-2 or anti-VDAC-1 overnight at 4°C, protein A/G plus beads; immunoblotted with anti-Bcl-2 and anti-VDAC-1. A general note: Immunoblotting shows a protein as a band on a membrane.

Test [2] has as its target T1, 14-3-3η (rat (endogenous in H9c2)) (UniProt P68511).
T1 sequence: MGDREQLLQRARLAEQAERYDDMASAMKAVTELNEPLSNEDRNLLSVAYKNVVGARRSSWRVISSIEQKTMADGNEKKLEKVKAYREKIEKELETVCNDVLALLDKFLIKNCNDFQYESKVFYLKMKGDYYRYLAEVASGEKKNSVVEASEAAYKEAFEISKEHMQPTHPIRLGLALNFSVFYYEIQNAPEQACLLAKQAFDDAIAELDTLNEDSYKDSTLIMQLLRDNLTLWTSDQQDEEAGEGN
Described as above.

Take Bcl-2 (from UniProt P49950 1-236): the binding entry in test [1] and in test [2] was “binds” throughout. On to “voltage-dependent anion channel 1 (from UniProt Q9Z2L0 1-283)”, for which the binding result in test [2] is “binds”.
